Test results taken from patent publication US20060159681A1.
Changes are numbered by the printed parent chain. No constants are given. Whether binding was seen depends on the method and setting. Binding seen in cells or lysates may run through a third protein. Some results given as binding are weak or reduced against the parent protein; the word gives no strength. For some of these results: Tags and fused reporters may be left off the sequences shown.

Amino acid sequences for entries named in this document (tags omitted). A change or cut given only in a name is not applied to a line headed by its entry. Residues count along the entry.
UniProt P0DMV8: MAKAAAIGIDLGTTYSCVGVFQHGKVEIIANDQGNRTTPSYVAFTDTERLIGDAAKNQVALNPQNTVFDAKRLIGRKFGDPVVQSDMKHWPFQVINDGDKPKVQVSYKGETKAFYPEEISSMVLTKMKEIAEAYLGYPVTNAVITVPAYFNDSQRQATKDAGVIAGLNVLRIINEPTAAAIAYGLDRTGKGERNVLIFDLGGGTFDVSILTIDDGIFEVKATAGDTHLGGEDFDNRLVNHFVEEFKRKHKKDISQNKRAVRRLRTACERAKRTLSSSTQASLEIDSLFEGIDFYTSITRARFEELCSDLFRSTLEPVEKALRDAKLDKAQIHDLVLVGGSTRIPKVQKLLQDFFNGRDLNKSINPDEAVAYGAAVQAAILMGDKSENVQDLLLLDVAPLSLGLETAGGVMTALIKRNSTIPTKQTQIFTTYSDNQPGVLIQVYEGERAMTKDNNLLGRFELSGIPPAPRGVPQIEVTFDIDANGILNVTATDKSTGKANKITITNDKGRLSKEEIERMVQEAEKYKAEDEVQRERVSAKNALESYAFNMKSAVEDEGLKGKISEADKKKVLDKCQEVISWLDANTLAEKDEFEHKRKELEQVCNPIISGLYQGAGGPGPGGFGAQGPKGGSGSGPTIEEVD
endogenous Hsp70 in human brain lysate: residues 2-641 of P0DMV8
UniProt O60260: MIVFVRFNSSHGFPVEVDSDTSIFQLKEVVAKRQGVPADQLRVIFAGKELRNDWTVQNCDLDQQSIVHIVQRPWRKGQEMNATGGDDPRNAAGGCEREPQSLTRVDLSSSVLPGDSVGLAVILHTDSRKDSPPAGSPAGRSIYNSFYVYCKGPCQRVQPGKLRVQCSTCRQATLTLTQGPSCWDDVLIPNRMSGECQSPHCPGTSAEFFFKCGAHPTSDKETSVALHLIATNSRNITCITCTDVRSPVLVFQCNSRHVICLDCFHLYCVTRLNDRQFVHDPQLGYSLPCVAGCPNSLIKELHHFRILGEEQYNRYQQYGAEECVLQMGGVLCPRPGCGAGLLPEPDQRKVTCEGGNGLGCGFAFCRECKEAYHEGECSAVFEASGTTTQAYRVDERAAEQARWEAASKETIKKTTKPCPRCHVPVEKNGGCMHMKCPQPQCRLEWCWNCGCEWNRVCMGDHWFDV

Columns and labels:
[1] = biological target: His-Hsp70 (human) (UniProt P0DMV8); assay: in vitro GST pull-down with His-Hsp70
[2] = biological target: His-parkin (human) (UniProt O60260); assay: in vitro GST pull-down with recombinant His-parkin
[3] = biological target: endogenous Hsp70 in human brain lysate (human) (UniProt P0DMV8); assay: GST pull-down from human brain SNpc lysate
[4] = biological target: His-parkin (human) (UniProt O60260); assay: in vitro GST pull-down (FIG. 4B)
[5] = biological target: Hsp70 (UniProt P0DMV8); assay: GST pull-down from transfected HEK293T cell lysates
[6] = biological target: T1, GFP-BAG5(DARA) (Homo sapiens (Human)) (UniProt Q9UL15); assay: as above
T1 sequence: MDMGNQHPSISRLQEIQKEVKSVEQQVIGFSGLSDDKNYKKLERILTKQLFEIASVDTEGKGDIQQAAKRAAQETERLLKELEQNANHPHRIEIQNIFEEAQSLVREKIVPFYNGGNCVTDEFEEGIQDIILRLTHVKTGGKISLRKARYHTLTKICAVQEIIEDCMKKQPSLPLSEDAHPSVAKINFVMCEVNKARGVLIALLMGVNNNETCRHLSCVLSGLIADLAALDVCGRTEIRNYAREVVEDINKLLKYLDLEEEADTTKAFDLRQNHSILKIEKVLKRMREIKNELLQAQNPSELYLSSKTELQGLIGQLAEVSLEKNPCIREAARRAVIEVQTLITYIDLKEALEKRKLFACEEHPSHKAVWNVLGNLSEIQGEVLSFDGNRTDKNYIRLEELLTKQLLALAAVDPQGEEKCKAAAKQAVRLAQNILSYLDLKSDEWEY

[7] = biological target: T2, GFP-BAG5 (human) (UniProt Q9UL15); assay: as above
T2 sequence: T1 sequence with A54D, A68R, A228D, A242R, A318D, A332R, A410D, A424R

[8] = biological target: T3, FLAG-BAG5 (human) (UniProt Q9UL15); assay: co-immunoprecipitation from transfected HEK293T lysate (FIG. 3E)
T3 sequence: T1 sequence with A54D, A68R, A228D, A242R, A318D, A332R, A410D, A424R

[9] = biological target: T4, FLAG-BAG5(DARA) (Homo sapiens (Human)) (UniProt Q9UL15); assay: co-immunoprecipitation from transfected HEK293T lysate
T4 sequence: T1 sequence

[10] = biological target: T3, FLAG-BAG5 (human); assay: as above
[11] = biological target: GFP-parkin (human) (UniProt O60260); assay: co-immunoprecipitation from transfected HEK293T cells, with and also without overexpressed Hsp70
[12] = biological target: Hsp70 (UniProt P0DMV8); assay: co-immunoprecipitation from transfected HEK293T lysate (FIG. 3E)
[13] = biological target: Hsp70 (UniProt P0DMV8); assay: co-immunoprecipitation from transfected HEK293T lysate
[14] = biological target: His-Hsp70 (human) (UniProt P0DMV8); assay: co-immunoprecipitation from transfected HEK293T lysates (FIG. 4A)
[15] = biological target: GFP-parkin (human) (UniProt O60260); assay: as above
[16] = biological target: endogenous Hsp70 in human brain lysate (human) (UniProt P0DMV8); assay: co-immunoprecipitation from human brain lysate (FIG. 3C)
[17] = biological target: endogenous Hsp70 in human brain lysate (human) (UniProt P0DMV8); assay: co-immunoprecipitation from human brain lysate

Measured: binding

B1: GST-BAG1 (protein, human, UniProt Q99933-4 1-230, looked up, not shown: a dimerising Fc or GST)
chain: MNRSQEVTRDEESTRSEEVTREEMAAAGLTVTVTHSNEKHDLHVTSQQGSSEPVVQDLAQVVEEVIGVPQSFQKLIFKGKSLKEMETPLSALGIQDGCRVMLIGKKNSPQEEVELKKLKHLEKSVEKIADQLEELNKELTGIQQGFLPKDLQAEALCKLDRRVKATIEQFMKILEEIDTLILPENFKDSRLKRKGLVKKVQAFLAECDTVEQNICQETERLQSTNFALAE
binds: [1]

B2: GST-BAG5 (protein, not shown: a dimerising Fc or GST)
chain: T1 sequence with A54D, A68R, A228D, A242R, A318D, A332R, A410D, A424R
binds: [2] | [3] | [4] | [5] | [6] | [7] | [1]

B3: GFP-BAG5 (protein, not shown: large carriers)
chain: T1 sequence with A54D, A68R, A228D, A242R, A318D, A332R, A410D, A424R
binds: [8] | [9] | [10]

B4: GST-BAG5(DARA) (protein, not shown: a dimerising Fc or GST; large carriers; small tags and cut ends)
chain: T1 sequence
binds: [2] | [4] | [6] | [7]

B5: FLAG-BAG5(DARA) (protein, not shown: small tags and cut ends)
chain: T1 sequence
binds: [11]

B6: GFP-BAG5(DARA) (protein, not shown: large carriers)
chain: T1 sequence
binds: [9] | [10]

B7: FLAG-BAG5 (protein, not shown: small tags and cut ends)
chain: T1 sequence with A54D, A68R, A228D, A242R, A318D, A332R, A410D, A424R
binds: [12] | [13] | [14] | [15] | [11]

B8: endogenous BAG5 in human brain lysate (protein)
chain: T1 sequence with A54D, A68R, A228D, A242R, A318D, A332R, A410D, A424R
binds: [16] | [17]
